Earlier results in US20220095646A1, “METHODS FOR THE PRODUCTION AND USE OF MYCELIATED AMINO ACID-SUPPLEMENTED FOOD COMPOSITIONS” (MycoTechnology, Inc., priority 2019, published 2022).

details: free amino acid

Q: With `N[C@@H](CS)C(=O)O` [Cysteine] as the molecule, how does the taste as described read?
A: Its taste as described is “strong, concentrated and nausea-inducing, compared to sewage, rotten eggs and sulfur, and bitter”.

Q: With `NCCCC[C@H](N)C(=O)O` [Lysine] as the molecule, how does the taste as described read?
A: The taste as described was “salty and bitter with a sharp component”.

Q: For `CSCC[C@H](N)C(=O)O` [methionine], which taste as described is on record?
A: Its taste as described is “very repulsive, metallic, mineral, bitter and induces nausea”.
